Laboratory results: paper PMC7488466
Results are given in words; binding and its absence hold for the method and conditions named. For part of these data: A result given as binding can be weak or reduced; the word gives no strength. Tags and fused reporters may be left off the sequences shown.

B1: RAD23D fused to the GAL4 activation domain (protein, UniProt Q84L30 1-378)
chain: MKIFVKTLSGSNFEIEVKPADKVSDVKTAIETVKGAEYPAAKQMLIHQGKVLKDETTLEENNVVENSFIVIMLSKTKASPSGASTASAPAPSATQPQTVATPQVSAPTASVPVPTSGTATAAAPATAASVQTDVYGQAASNLVAGTTLESTVQQILDMGGGSWDRDTVVRALRAAFNNPERAVEYLYSGIPAQAEIPPVAQAPATGEQAANPLAQPQQAAAPAAATGGPNANPLNLFPQGMPAADAGAGAGNLDFLRNSQQFQALRAMVQANPQILQPMLQELGKQNPQLVRLIQEHQADFLRLINEPVEGEENVMEQLEAAMPQAVTVTPEEREAIERLEGMGFDRAMVLEVFFACNKNEELAANYLLDHMHEFEDQ
B2: SEP4 (aa 57-257) fused to the GAL4 activation domain (domain or fragment, UniProt P29383 57-257)
chain: FCSSPSGMARTVDKYRKHSYATMDPNQSAKDLQDKYQDYLKLKSRVEILQHSQRHLLGEELSEMDVNELEHLERQVDASLRQIRSTKARSMLDQLSDLKTKEEMLLETNRDLRRKLEDSDAALTQSFWGSSAAEQQQQHQQQQQGMSSYQSNPPIQEAGFFKPLQGNVALQMSSHYNHNPANATNSATTSQNVNGFFPGWM
B3: RAD23C fused to the GAL4 activation domain (protein, UniProt Q84L31 1-419)
chain: MKIFVKTLKGTHFEIEVKPEDSVVDVKKNIESVQGADVYPAAKQMLIHQGKVLKDETTIEENKVAENSFIVIMMNKSKPASAAASSASAGTSQAKSIPPSTSQPSISPQTPASVSAPVAPAPTRPPPPAPTPTPAPVAATETVTTPIPEPVPATISSSTPAPDSAPVGSQGDVYGQAASNLAAGSNLESTIQQILDMGGGTWDRETVVLALRAAFNNPERAVEYLYTGIPEQAEVPPVARPPASAGQPANPPAQTQQPAAAPASGPNANPLDLFPQGLPNVGGNPGAGTLDFLRNSQQFQALRAMVQANPQVLQPMLQELGKQNPNLMRLIQDHQADFLRLINEPVEGGGESGNLLGQMAAGMPQPQAIQVTHEEREAIERLEAMGFERALVLEVFFACNKNEELAANYLLDHMHEFEE

Experiments:
Experiment in all cases: two-hybrid; Matchmaker GAL4 Two-Hybrid System 3 (Clontech); phyllogens fused to the DNA-binding domain (bait), MTFs and RAD23C/D fused to the activation domain (prey); graded by yeast growth on -LW, -LWH, -LWH+3AT and all media
[1] = molecular target: PHYL1SY fused to the GAL4 DNA-binding domain (Ca. P. fragariae SY strain)
[2] = molecular target: PHYL1JWB fused to the GAL4 DNA-binding domain (Ca. P. ziziphi JWB strain)
[3] = molecular target: PHYL1PYR fused to the GAL4 DNA-binding domain
[4] = molecular target: PHYL1OY fused to the GAL4 DNA-binding domain (Ca. P. asteris OY strain)
[5] = molecular target: PHYL1PnWB fused to the GAL4 DNA-binding domain (Ca. P. aurantifolia PnWB strain)
[6] = molecular target: PHYL1FBP fused to the GAL4 DNA-binding domain (Ca. P. aurantifolia FBP strain)
[7] = molecular target: PHYL1MD fused to the GAL4 DNA-binding domain (Ca. P. asteris MD strain)
[8] = molecular target: PHYL1PvWB fused to the GAL4 DNA-binding domain (Ca. P. asteris PvWB strain)
[9] = molecular target: PHYL1PWB fused to the GAL4 DNA-binding domain
[10] = molecular target: PHYL1SY R64N fused to the GAL4 DNA-binding domain (Ca. P. fragariae SY strain)
[11] = molecular target: PHYL1SY Q30K/R64N fused to the GAL4 DNA-binding domain (Ca. P. fragariae SY strain)

| Binder | binding [1] | binding [2] | binding [3] | binding [4] | binding [5] | binding [6] | binding [7] | binding [8] | binding [9] | binding [10] | binding [11] |
| --- | --- | --- | --- | --- | --- | --- | --- | --- | --- | --- | --- |
| B1 | binds | binds | no binding | binds | binds | binds | binds | binds | binds |  |  |
| B2 | no binding | binds | no binding |  | binds | binds | no binding | no binding | binds | binds | binds |
| B3 | binds | binds | no binding |  | binds | binds | binds | binds | binds |  |  |
